Measurements as given in publication PMC10269391.
The exact form of at least one protein or probe is not confirmed.

By UniProt entry, the sequences of proteins in these tests, tags left out. Where a name states a change or a piece, a line headed by the entry shows the natural chain unless it says otherwise.
UniProt P0A9Q1: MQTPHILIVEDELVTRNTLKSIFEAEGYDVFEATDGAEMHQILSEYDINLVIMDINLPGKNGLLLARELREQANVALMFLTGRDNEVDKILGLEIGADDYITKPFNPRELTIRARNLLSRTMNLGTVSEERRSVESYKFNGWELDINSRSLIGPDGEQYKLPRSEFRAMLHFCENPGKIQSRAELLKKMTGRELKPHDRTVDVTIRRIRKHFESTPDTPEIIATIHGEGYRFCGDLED

Target: ArcA-6His phosphorylated (ArcA-P) (UniProt P0A9Q1)
Test: EMSA
Conditions: 10 mM Mg2+, 100 mM Tris pH 7.4, 10 mM MgCl2, 100 mM KCl, 5% glycerol, 2 mM DTT, recombinant protein, protein details: 6xHis (pET28a-arcA6His), label: none (SYBR Gold stain), probe letters rebuilt from the primers and the genome

Sequence | binding result (strong shift similar to clbB, BSA (printed 400 µg/mg), 50 ng DNA, 30 min 37°C, 6% TBE gel, 0.5x TBE) | binding result (0-600 ng with 50 ng DNA, dose-dependent shift, BSA ([…])
TGCGACTTTCATCCTAAACTCCTTATTATATTGATAAACTAAGATATGTTGCTCCGCTGCCGCGACCTTAATCCACAAAATTGCCGTTTACAATGACCACATCTCAAGAATGTGTAGTCACGCAAGTTTAGCGTTTATGCATTTAATTGCCGTAATCAGGAACCTAACTTACGTAATTAACAGTCGCTTATGCATTAGCGCAACATTCCAACAGGTGGTGACAATATACCC (double strand) [mdh promoter region] | binds | 
TGGCAGTATTTAAGAGGAATTTACGATACAACGGTTTTTATGTAAATGGGAATTACGCATTATTTTCTATGTGGTGGCTGTATCAATTCATACCCGCTACATCATGTATGTACTGCATGACTTACATGTTTTTGCTTACAGACAGAATCTAATTCATTGAAGAAAAACATGTAATCAGAATATAAGGATTTTTTGGGGGTATTCCTGTAAGTGATAAAATGCAATATGATTATATGAATACGCAATAAAAAACTATACTTGCGGATAGGTGTGCCATTTAGAATAATCATGTTAAATAATCTATAAATCCGATAATAAGGTGATGGTTATGGATA (double strand) [clbB promoter region] |  | binds
